Test results as given in publication PMC3847324, “Jun dimerization protein 2 is a critical component of the Nrf2/MafK complex regulating the response to ROS homeostasis”.
Changes are numbered by the printed parent chain. These are yes or no findings as the source states them, for the method shown. For part of these data: Binding seen in cells or lysates may run through a third protein. Some binding calls cover weakened binding; strength is not graded here. For part of these data: Sequences can lack the tags named with a protein.

Sequences of proteins named here, by UniProt entry; tags and fusion partners are left off.
UniProt O60675: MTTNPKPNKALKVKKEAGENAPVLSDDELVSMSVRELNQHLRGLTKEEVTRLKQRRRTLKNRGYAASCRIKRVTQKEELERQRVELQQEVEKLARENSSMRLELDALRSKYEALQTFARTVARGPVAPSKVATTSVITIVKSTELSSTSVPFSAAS
UniProt Q8WYK2: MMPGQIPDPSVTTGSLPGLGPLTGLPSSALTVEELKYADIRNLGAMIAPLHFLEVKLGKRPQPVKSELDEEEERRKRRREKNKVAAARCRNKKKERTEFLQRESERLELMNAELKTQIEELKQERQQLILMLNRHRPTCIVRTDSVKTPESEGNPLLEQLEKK

Columns and labels:
[1] = biological target: T1, FLAG–Nrf2 (UniProt Q60795); test: co-IP; nuclear fractions of 293T clones transformed with FLAG-tagged Jdp2, Nrf2 or MafK; immunoprecipitated with anti-FLAG M2 and protein A/G-Sepharose; western blot with antibodies against Nrf2, MafK and JDP2
T1 sequence: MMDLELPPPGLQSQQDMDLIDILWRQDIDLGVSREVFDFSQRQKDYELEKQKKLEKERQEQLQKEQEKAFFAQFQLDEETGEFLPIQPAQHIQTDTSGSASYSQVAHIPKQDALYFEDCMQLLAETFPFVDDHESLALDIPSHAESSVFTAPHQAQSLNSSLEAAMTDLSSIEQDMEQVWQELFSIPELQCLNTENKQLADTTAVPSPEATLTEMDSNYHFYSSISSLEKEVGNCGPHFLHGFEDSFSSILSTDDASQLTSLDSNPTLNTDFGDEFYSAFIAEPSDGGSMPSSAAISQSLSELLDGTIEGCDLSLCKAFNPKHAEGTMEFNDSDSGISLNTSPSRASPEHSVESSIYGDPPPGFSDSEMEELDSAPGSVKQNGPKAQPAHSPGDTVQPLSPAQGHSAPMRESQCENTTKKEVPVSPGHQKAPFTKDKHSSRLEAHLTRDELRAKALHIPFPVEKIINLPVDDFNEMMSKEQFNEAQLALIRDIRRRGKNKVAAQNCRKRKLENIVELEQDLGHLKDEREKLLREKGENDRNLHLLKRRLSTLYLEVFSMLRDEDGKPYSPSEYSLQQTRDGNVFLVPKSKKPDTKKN

[2] = biological target: T2, FLAG–Jdp2 (mouse) (UniProt P97875); test: as above
T2 sequence: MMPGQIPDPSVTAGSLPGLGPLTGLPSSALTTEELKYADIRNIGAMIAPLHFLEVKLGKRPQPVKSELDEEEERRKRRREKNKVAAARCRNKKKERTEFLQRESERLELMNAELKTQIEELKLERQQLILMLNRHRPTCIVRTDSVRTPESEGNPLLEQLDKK

[3] = biological target: T3, in vitro-translated JDP2 (mouse) (UniProt P97875); test: native gel or EMSA; 10 ng in vitro-translated proteins incubated at 25 °C for 30 min with labeled human NQO1–ARE oligonucleotide; 5% nondenaturing polyacrylamide gel at 4 °C in 0.5 x Tris-borate/EDTA; complex seen on DNA
T3 sequence: T2 sequence

[4] = biological target: T4, GST-JDP2 (mouse, UniProt P97875 1-163); test: pull-down; 10 μg GST fusion protein on 10 μl glutathione-Sepharose beads incubated with 5 μl nonradioactive in vitro-translated protein in 500 μl binding buffer, 2 h at 4 °C; washed five times with 100 mM NaCl, 20 mM HEPES pH 7.9, 0.1% NP-40, 5 mM MgCl2, 0.5 mM PMSF; bound protein detected by western blotting; only the target purified
T4 sequence: T2 sequence

[5] = biological target: T5, GST–Nrf2 (UniProt Q60795); test: as above
T5 sequence: T1 sequence

MafK detected in anti-FLAG immunoprecipitates of 293T nuclear extracts (from UniProt O60675 1-156)
binding [1]: binds
binding [2]: binds

B1: JDP2 detected in anti-FLAG immunoprecipitates of 293T nuclear extracts (protein, UniProt Q8WYK2 1-163)
chain: T2 sequence with A13T, T32V, I43L, L123Q, R147K, D161E
binding [1]: binds

B2: in vitro-translated Nrf2 (protein, UniProt Q60795 1-597)
chain: T1 sequence
binding [3]: binds
binding [4]: binds

B3: in vitro-translated JDP2 (protein, UniProt P97875 1-163)
chain: T2 sequence
binding [5]: binds
